The shares of active, inactive and inconclusive entries below differ from those in the screen. Potencies beside an inconclusive call are fits to weak or partial responses and may not hold up. The source made the active and inactive calls. How the source made its calls: active means hit-call score of the fitted dose curve at least 0.9, where 1 is the maximum; inconclusive means response in the unintended direction; inactive means score below 0.9.
target: Tyrosine-protein phosphatase non-receptor type 13 (Homo sapiens) (UniProt Q12923); test: NVS_ENZ_hPTPN13: NovaScreen (NVS) Enzymatic Assay for human Protein Tyrosine Phosphatase Non-receptor Type 13 (PTPN13) (AID 2283205)
Method: NVS_ENZ_hPTPN13 is a biochemical, single-readout assay that uses extracted gene-proteins in a cell-free assay. Measurements were taken 0.5 hour after chemical dosing in a 384-well plate.NVS_ENZ_hPTPN13 is one of one assay component(s) measured or calculated from the NVS_ENZ_hPTPN13 assay. It is designed to make measurements of enzyme activity, a form of enzyme reporter, as detected with fluorescence intensity signals by Fluorescence and electrophoretic mobility shift technology.Data from the assay component NVS_ENZ_hPTPN13 was analyzed into 1 assay endpoint. This assay endpoint, NVS_ENZ_hPTPN13, was analyzed in the positive analysis fitting direction relative to DMSO as the negative control and baseline of activity. Using a type of enzyme reporter, loss-of-signal activity can be used to understand changes in the enzymatic activity as they relate to the gene PTPN13. Furthermore, this assay endpoint can be referred to as a primary readout, because this assay has produced multiple assay endpoints where this one serves a enzymatic activity function. To generalize the intended target to other relatable targets, this assay endpoint is annotated to the phosphatase intended target family, where the subfamily is non-receptor tyrosine phosphatase.
Binding assays used specific radioligands (tritiated, iodinated) with non-radioactive competitive displacement ligands in agonist or antagonist protocols (as indicated) and various reference compounds and inhibitors to titrate specific binding to receptors and transporters. Most enzyme assays (CYPs, kinases, phosphatases, proteases, HDACs) used recombinant protein and specific substrates (fluorescence mostly, some colorimetric and radioactive) and inhibitors, followed by a biochemical separation of substrate and product. All assays for the biochemical HTS were initially run in duplicate at a single concentration (10 uM for CYP450 assays and 25 uM for all others). Assay-chemical combinations meeting a pre-defined threshold (e.g., 30% inhibition and other criteria defined below) were then run in singleton concentration-response format with maximum concentration of 20 uM for CYPs and 50 uM for all others. Each assay was run with positive and negative controls, and concurrent controls on every plate. The follow-up (secondary) screen tested active chemical-pairs in concentration series, as well as a few additional assays not tested in the primary screen, some selected negative inactives, and several cases re-run in the concentration series for confirmatory purposes.

Amino acid sequences for entries named in this document (tags omitted). A change or cut given only in a name is not applied to a line headed by its entry.
UniProt Q12923: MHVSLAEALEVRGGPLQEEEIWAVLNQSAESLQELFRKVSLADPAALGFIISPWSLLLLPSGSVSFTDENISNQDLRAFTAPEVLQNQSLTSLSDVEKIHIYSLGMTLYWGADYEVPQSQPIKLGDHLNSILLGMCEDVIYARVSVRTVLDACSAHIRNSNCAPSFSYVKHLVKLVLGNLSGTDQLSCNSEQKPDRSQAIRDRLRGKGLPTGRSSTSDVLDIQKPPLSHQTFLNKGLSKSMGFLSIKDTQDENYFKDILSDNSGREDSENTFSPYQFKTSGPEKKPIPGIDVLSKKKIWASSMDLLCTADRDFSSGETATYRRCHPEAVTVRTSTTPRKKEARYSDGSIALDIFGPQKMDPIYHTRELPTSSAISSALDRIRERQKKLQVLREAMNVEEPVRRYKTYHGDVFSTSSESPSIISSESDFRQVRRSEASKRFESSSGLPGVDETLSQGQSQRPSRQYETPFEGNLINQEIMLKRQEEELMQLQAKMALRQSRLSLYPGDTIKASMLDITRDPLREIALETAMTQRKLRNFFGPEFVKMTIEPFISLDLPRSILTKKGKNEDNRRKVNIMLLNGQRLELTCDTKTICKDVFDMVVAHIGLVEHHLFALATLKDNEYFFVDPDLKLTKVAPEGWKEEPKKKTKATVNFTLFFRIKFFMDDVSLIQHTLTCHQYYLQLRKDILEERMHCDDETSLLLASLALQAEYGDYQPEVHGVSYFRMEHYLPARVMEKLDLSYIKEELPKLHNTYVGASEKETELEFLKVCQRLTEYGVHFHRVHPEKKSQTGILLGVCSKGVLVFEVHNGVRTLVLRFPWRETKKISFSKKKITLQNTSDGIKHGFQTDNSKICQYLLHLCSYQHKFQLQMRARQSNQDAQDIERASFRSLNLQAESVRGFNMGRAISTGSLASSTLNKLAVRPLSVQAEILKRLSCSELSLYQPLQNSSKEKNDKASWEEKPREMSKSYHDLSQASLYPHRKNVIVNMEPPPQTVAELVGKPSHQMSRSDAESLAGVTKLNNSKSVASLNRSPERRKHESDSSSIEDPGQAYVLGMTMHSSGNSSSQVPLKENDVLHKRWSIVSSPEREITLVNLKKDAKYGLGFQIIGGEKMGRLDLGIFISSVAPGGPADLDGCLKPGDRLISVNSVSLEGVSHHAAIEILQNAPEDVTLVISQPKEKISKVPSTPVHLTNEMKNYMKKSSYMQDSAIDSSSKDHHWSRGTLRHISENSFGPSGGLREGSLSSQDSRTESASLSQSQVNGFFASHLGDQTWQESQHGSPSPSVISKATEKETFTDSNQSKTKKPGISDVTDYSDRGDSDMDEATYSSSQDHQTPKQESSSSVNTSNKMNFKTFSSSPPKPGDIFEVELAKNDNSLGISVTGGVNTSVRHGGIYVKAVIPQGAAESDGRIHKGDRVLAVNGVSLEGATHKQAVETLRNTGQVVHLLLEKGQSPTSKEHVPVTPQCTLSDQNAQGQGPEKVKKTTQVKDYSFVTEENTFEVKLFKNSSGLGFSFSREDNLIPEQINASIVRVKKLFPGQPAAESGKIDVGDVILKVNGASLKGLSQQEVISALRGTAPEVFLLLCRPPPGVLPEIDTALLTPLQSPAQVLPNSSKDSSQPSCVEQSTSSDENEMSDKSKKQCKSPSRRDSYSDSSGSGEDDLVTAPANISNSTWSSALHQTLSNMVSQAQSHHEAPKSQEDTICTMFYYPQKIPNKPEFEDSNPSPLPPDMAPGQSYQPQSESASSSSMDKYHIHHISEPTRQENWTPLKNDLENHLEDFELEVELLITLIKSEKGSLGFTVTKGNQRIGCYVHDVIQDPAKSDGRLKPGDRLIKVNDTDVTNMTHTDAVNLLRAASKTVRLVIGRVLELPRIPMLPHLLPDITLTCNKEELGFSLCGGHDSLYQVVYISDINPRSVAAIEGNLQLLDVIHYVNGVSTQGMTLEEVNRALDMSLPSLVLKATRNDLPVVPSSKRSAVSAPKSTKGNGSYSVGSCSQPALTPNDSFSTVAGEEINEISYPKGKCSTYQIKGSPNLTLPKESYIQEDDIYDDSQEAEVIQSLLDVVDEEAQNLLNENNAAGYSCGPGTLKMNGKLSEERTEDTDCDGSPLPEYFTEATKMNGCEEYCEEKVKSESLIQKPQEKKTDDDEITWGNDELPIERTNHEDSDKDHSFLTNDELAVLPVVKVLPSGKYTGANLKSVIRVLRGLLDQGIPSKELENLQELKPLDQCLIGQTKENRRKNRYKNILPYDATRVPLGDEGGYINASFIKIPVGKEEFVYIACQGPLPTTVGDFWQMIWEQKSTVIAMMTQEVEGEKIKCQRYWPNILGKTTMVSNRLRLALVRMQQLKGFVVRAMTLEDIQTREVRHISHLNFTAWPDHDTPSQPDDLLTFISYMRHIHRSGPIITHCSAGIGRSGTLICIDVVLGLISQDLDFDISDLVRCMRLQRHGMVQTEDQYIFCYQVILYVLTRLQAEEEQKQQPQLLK

SMILES	AC50	outcome
O=[N+]([O-])C(CO)(CO)CO	inconclusive: 185 nM	
OC(CCl)CCl		inactive
Cc1ccc(N)cc1O		inactive
CCCc1cc(=O)[nH]c(=S)[nH]1		inactive
O=C(O)c1cccc(Oc2ccccc2)c1	active: 119 nM	
O=c1[nH]cnc2c1ncn2[C@H]1CC[C@@H](CO)O1		inactive
c1ccc2occc2c1	inconclusive: 567 nM	
Nc1nc(=S)c2[nH]cnc2[nH]1	inconclusive: 25000 nM	
CCN(CC)CCNc1ccc(CNC=O)c2sc3ccc(OC)cc3c(=O)c12		inactive
CCc1c(C(=O)NN2CCCCC2)nn(-c2ccc(Cl)cc2Cl)c1-c1ccc(Br)cc1	active: 97.6 nM	

Shown bar-delimited: 2 of the compounds above
SMILES | AC50 | outcome
O=c1[nH]cnc2c1ncn2[C@H]1CC[C@@H](CO)O1 |  | inactive
c1ccc2occc2c1 | inconclusive: 567 nM | 

From PubChem BioAssay (EPA / NIEHS)
